Measured values: the supplement of paper PMC10849652
The other results are listed elsewhere or left out.

Chains of the proteins cited; added tags and fusions are not shown. Lines headed by an entry give the natural chain unless they say otherwise; changes in a name come on top.
UniProt Q5T5X7: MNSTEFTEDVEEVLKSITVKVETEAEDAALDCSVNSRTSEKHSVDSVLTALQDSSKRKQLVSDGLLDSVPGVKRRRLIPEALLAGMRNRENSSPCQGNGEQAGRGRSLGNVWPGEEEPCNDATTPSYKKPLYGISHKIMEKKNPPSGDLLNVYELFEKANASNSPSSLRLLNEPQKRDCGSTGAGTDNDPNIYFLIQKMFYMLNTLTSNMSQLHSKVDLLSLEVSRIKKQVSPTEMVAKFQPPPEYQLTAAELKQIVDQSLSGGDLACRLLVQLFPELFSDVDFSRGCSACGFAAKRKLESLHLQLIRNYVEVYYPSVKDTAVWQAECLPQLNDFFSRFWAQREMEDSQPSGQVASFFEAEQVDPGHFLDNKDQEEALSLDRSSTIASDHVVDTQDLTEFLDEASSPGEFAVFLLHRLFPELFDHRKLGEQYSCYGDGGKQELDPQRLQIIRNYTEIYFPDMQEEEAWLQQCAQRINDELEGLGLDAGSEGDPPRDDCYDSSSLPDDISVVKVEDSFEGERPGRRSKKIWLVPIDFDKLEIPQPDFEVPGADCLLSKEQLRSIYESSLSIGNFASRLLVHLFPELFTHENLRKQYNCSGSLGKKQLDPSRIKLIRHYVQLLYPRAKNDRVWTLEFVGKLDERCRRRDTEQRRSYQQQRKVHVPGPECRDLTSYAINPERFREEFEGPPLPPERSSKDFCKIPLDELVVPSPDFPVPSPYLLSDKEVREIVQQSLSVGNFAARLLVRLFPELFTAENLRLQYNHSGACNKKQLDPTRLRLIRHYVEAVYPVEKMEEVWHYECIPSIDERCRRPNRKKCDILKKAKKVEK
UniProt Q96B45: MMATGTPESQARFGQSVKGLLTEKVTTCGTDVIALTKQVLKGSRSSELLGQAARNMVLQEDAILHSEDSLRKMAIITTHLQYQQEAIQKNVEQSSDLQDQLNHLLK
UniProt Q9NQY0: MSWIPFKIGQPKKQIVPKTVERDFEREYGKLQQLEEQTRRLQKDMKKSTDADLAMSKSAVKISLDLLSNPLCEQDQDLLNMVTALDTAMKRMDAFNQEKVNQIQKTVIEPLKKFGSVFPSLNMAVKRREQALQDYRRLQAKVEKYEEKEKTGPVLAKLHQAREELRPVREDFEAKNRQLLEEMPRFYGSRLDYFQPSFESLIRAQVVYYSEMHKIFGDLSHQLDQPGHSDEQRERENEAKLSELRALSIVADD
UniProt Q9BX63: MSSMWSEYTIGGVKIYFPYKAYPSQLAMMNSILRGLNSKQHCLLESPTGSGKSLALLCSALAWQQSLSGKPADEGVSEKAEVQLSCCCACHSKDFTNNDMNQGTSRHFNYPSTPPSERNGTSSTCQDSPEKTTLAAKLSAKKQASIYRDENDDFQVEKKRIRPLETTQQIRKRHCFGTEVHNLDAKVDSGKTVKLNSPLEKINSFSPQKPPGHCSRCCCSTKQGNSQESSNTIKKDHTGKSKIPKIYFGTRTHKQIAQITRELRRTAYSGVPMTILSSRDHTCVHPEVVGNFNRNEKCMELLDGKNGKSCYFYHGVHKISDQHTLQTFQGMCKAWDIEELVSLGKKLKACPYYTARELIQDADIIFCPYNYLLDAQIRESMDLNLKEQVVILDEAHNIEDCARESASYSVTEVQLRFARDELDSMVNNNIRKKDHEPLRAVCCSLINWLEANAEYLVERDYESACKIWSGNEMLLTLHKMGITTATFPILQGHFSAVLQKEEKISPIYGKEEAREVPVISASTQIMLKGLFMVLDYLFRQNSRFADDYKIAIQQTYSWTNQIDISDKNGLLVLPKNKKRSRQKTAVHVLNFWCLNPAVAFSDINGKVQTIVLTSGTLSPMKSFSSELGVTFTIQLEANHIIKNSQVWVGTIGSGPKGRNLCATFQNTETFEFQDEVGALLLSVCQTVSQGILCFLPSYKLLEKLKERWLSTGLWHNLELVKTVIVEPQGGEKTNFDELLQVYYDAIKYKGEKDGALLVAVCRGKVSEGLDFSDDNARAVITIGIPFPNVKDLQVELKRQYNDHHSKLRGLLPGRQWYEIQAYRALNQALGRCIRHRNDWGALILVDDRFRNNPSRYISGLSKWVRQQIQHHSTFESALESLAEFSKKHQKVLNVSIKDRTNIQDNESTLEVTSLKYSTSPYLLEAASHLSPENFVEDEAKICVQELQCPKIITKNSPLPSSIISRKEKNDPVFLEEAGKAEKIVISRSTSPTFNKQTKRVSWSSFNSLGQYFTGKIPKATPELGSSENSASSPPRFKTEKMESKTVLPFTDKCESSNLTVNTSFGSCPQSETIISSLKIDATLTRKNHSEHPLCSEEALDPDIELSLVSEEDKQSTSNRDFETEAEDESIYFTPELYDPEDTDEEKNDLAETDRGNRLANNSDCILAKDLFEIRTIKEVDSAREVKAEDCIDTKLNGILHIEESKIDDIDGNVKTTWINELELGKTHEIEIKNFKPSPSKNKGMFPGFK
UniProt Q12983, whole entry, looked up: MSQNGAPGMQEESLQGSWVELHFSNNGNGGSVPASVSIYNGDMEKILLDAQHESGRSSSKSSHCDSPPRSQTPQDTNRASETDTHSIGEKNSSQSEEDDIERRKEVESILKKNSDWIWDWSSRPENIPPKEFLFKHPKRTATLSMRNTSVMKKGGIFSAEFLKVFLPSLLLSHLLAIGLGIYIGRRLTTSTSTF
UniProt O00512: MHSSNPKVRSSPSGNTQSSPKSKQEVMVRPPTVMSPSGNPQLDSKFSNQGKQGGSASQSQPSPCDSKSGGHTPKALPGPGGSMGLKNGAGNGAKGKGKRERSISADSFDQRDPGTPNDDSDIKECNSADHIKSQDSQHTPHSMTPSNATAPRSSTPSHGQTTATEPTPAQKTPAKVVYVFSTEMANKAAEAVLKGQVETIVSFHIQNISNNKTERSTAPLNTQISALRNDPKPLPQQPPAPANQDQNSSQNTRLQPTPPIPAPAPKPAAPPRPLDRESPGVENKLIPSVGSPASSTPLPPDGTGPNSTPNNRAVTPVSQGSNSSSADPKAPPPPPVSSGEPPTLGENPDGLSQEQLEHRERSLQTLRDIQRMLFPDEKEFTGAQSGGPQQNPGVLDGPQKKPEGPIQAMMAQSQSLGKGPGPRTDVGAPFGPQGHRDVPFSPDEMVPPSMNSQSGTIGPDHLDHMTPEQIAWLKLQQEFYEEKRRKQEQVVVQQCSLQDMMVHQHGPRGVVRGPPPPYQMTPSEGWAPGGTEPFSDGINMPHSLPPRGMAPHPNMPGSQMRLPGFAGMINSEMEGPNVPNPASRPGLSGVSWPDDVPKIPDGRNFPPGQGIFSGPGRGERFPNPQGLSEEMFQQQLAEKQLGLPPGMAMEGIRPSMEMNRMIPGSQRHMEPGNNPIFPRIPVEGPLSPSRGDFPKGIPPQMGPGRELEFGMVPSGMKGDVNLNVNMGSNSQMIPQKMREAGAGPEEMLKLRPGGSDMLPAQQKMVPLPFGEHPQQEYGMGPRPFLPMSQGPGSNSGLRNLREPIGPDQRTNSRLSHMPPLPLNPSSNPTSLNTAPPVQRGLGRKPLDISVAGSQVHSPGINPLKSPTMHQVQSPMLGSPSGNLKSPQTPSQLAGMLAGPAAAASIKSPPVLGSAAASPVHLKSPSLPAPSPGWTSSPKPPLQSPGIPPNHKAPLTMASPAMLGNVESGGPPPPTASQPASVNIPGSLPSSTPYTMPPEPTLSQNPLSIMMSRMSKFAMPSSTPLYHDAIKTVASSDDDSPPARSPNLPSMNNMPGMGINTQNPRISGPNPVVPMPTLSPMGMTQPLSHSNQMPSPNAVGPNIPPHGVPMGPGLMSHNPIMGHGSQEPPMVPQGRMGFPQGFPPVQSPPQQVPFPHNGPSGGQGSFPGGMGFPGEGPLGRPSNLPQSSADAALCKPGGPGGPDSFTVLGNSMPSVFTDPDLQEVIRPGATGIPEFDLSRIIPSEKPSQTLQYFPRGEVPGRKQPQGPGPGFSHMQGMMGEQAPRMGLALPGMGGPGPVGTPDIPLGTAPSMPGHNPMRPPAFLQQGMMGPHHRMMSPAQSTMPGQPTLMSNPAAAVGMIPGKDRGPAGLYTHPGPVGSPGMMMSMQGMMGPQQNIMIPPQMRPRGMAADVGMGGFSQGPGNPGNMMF
UniProt O00499: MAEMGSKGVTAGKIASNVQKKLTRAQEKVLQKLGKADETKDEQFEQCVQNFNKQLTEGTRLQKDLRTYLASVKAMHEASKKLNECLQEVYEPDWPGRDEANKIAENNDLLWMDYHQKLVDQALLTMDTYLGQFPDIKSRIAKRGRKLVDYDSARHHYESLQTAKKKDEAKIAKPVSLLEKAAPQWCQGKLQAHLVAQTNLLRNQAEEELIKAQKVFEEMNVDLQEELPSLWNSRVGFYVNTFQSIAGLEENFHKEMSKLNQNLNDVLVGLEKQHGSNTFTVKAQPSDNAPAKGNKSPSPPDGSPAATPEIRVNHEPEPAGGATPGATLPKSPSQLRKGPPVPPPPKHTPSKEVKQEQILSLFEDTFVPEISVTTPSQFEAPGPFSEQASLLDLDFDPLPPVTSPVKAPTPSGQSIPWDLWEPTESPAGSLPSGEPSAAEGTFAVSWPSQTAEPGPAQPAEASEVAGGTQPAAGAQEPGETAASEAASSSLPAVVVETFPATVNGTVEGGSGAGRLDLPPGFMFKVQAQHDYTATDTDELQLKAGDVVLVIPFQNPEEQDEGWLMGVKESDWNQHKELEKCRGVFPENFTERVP
UniProt Q9HCU9: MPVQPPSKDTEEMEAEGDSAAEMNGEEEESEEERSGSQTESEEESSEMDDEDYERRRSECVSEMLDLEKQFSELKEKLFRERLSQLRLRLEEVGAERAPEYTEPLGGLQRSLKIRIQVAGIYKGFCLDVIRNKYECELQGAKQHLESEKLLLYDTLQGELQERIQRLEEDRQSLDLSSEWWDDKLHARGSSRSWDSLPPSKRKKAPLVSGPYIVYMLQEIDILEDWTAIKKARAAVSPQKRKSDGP
UniProt Q9H0C5: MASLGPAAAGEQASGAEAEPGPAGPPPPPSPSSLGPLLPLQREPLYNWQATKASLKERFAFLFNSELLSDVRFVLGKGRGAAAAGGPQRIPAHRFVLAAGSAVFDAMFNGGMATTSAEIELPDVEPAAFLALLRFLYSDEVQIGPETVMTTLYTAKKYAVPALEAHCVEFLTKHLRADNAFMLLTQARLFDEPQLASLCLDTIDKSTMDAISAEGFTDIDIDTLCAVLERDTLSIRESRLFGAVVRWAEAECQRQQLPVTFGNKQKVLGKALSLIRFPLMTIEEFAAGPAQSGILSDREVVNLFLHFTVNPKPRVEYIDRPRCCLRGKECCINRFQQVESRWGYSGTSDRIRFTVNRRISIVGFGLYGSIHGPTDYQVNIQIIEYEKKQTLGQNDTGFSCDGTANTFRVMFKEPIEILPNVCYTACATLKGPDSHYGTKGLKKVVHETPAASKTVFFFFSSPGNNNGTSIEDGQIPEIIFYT
UniProt Q16611: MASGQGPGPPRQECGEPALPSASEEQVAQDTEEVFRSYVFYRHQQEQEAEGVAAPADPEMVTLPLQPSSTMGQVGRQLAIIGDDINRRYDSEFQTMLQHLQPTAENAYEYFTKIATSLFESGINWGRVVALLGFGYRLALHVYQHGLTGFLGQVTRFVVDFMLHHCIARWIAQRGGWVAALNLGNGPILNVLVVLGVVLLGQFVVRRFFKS
UniProt Q9NPI1: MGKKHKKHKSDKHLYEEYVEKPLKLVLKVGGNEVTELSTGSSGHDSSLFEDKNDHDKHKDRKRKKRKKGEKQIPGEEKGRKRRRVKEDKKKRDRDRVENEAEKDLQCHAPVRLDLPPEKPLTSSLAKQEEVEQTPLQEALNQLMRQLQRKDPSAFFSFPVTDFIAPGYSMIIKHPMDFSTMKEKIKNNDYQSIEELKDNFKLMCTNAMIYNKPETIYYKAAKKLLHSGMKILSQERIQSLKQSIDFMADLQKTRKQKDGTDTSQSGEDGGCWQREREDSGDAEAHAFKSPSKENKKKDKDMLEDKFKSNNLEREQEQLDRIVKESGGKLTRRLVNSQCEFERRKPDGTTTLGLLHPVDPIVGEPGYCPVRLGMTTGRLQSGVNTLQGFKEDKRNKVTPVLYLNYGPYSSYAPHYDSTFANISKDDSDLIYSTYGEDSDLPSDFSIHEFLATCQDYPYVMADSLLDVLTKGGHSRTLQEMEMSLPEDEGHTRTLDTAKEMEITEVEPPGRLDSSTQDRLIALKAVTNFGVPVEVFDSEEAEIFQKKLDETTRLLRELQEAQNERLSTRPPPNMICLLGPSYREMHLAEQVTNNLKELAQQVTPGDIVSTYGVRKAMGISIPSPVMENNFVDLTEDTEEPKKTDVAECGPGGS

What was measured:
Experiment in all cases: log2 fold change, soluble protein after heating vs DMSO (PISA); higher = thermal stabilisation; K562 lysate, 10 uM; active = over 0.2 and 3.5 SD of the protein, either way, in both replicates (recomputed)
erlotinib = compound: C#Cc1cccc(Nc2ncnc3cc(OCCOC)c(OCCOC)cc23)c1 [erlotinib]
In short: (§1)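 To prepare the extract, K562 pellets were dounce-homogenised in PBS pH 7.4 with 1 mM MgCl2, giving crude material at 1 mg/mL protein. This was treated with 10 μM compound for 30 min, then heated in aliquots for 3 min over 48°C-58°C before pooling and addition of NP-40 to 0.5% at 4°C. Centrifugation at 21,000xg for 90 min left soluble protein in the supernatant, which TMTpro 16plex LC-MS/MS quantified with equalised channel sums. Results are log-two fold changes in thermal stability compared with solvent controls, from duplicates.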

[1] = compound: C/C(=N\NC(=O)C1=CC(=CC=C1)S(=O)(=O)N2CCOCC2)/C3=C(C=CC(=C3)Cl)O
In short: as §1

[2] = compound: C1=CC(=CC=C1C2=NC3=C(N2)C=C(C=C3)C(=O)N)OC4=CC=C(C=C4)Cl
In short: as §1

[3] = compound: C1=CC2=C(C=CC(=C2)/C=C\3/C(=O)NC(=NCC4=CC=CS4)S3)N=C1
In short: as §1

[4] = compound: C1=CC=C2C(=C1)C3=NNC4=CC=CC(=C43)C2=O
In short: as §1

[5] = compound: C1CCN(C1)C(=O)NC2=CC=CC(=C2)NC3=NC=C(C(=N3)NCCC4=CN=CN4)Br
In short: as §1

[6] = compound: C1CN(CCC1(CC2=CC=C(C=C2)Cl)N)C3=NC=NC4=C3C=CN4
In short: as §1

[7] = compound: CC(=O)c1cnc2ccc(-c3cc(Cl)c(O)c(Cl)c3)nc2c1N[C@H]1CC[C@H](CN(C)C)CC1
In short: as §1

[8] = compound: CC(C)C1=C2N=C(C=C(N2N=C1)NCC3=CC=CC=C3)NCCCCCCN
In short: as §1

[9] = compound: CC1=C(C(CC(=O)N1)C2=CC=C(C=C2)C(F)(F)F)C(=O)NC3=C(C=C4C(=C3)C=NN4)F
In short: as §1

[10] = compound: CC1=C(C2=C(C=C1)C(=O)C3=CC=CC=C3N2CCCN)C
In short: as §1

[11] = compound: CC1=C(C=C(C=C1)NC(=O)C2=CC(=CC=C2)C(C)(C)C#N)NC3=CC4=C(C=C3)N=CN(C4=O)C
In short: as §1

[12] = compound: CC1=CC=C(C=C1)SC2=C3C=C(SC3=CN=C2)C(=O)N
In short: as §1

[13] = compound: C1=CC=C(C=C1)C2=NC(=C(N2)C3=CC=NC=C3)C4=CC(=C(C=C4)Cl)O
In short: as §1

IRAK-1-4 Inhibitor I = compound: C1COCCN1CCN2C3=CC=CC=C3N=C2NC(=O)C4=CC(=CC=C4)[N+](=O)[O-] [IRAK-1-4 Inhibitor I]
In short: as §1

ralimetinib = compound: CC(C)(C)Cn1c(N)nc2ccc(-c3[nH]c(C(C)(C)C)nc3-c3ccc(F)cc3)nc21 [ralimetinib]
In short: as §1

[14] = compound: CC(C)(O)CC(=O)NCCn1ccc2ncnc(Nc3ccc(Oc4cccc(C(F)(F)F)c4)c(Cl)c3)c21
In short: as §1

[15] = compound: CC1=C(C=C(C=C1)NC(=O)C2=CC(=CC=C2)N(C)C)NC(=O)C3=CC=C(C=C3)O
In short: as §1

[16] = compound: C1=CC2=NC=CN=C2C=C1/C=C/3\C(=O)NC(=O)S3
In short: as §1

ibrutinib = compound: C=CC(=O)N1CCC[C@@H](n2nc(-c3ccc(Oc4ccccc4)cc3)c3c(N)ncnc32)C1 [ibrutinib]
In short: as §1

Measured: log2 fold change

BAHCC1 (UniProt Q9P281)
inactive: erlotinib -0.047 | [1] 0.026 | [2] 0.076 | [3] -0.126 | [4] -0.009 | [5] -0.101 | [6] -0.11 | [7] -0.045 | [8] -0.018 | [9] -0.114 | [10] -0.008 | [11] 0.013 | [12] 0.074

BEND3 (UniProt Q5T5X7)
inactive: erlotinib 0.061 | [1] -0.19 | [2] -0.148 | [3] 0.095 | [13] 0.126 | [4] -0.203 | [5] -0.011 | [6] 0.026 | IRAK-1-4 Inhibitor I 0.027 | [7] 0.025 | ralimetinib -0.001 | [14] 0.015 | [8] 0.104 | [10] -0.118 | [11] 0.005 | [15] 0.017 | [12] -0.058

BORCS7 (UniProt Q96B45)
inactive: erlotinib 0.045 | [1] -0.002 | [2] -0.021 | [3] 0.141 | [16] -0.103 | [4] -0.018 | ibrutinib -0.031 | [7] -0.122 | [8] -0.168 | [9] 0.046 | [11] 0.082 | [12] -0.013

BIN3 (UniProt Q9NQY0)
inactive: erlotinib -0.188 | [2] 0.063 | [16] -0.04 | [13] -0.022 | IRAK-1-4 Inhibitor I -0.019 | ibrutinib 0.012 | ralimetinib 0.087 | [14] 0.001 | [8] -0.17 | [10] 0.059 | [11] 0.194 | [15] -0.028

BRIP1 (UniProt Q9BX63)
inactive: erlotinib 0.038 | [1] -0.257 | [2] 0.067 | [3] 0.131 | [13] 0.021 | [4] 0.139 | [5] 0.112 | [6] -0.042 | IRAK-1-4 Inhibitor I 0.169 | [7] -0.001 | ralimetinib 0.056 | [14] -0.064 | [8] -0.003 | [9] -0.043 | [10] -0.023 | [11] 0.026 | [15] 0.046 | [12] 0.021

BNIP3 (UniProt Q12983)
inactive: erlotinib -0.008 | [2] 0.036 | [16] -0.013 | [13] 0.028 | [5] 0.031 | [6] 0.02 | IRAK-1-4 Inhibitor I 0.057 | ibrutinib 0.04 | [7] 0.048 | ralimetinib 0.032 | [14] 0.01 | [8] -0.002 | [9] -0.068 | [10] -0.002 | [11] 0.045 | [15] -0.047 | [12] 0.003

BCL9 (UniProt O00512)
inactive: erlotinib -0.131 | [1] 0.177 | [2] -0.01 | [3] -0.106 | [16] 0.125 | [13] -0.096 | [4] -0.114 | IRAK-1-4 Inhibitor I 0.27 | ibrutinib 0.043 | ralimetinib 0.009 | [14] -0.288 | [8] 0.056 | [11] -0.053 | [15] 0.055

BIN1 (UniProt O00499)
inactive: erlotinib -0.096 | [1] 0.041 | [2] 0.063 | [3] -0.086 | [4] 0.039 | [5] -0.168 | [6] 0.246 | [7] -0.005 | [8] -0.244 | [9] 0.009 | [12] 0.071

BRMS1 (UniProt Q9HCU9)
inactive: erlotinib -0.014 | [1] -0.006 | [2] 0.037 | [3] 0.028 | [13] 0.061 | [4] 0.133 | [5] 0.041 | [6] 0.046 | IRAK-1-4 Inhibitor I 0.099 | [7] -0.026 | ralimetinib 0.05 | [14] -0.127 | [8] 0.017 | [9] -0.007 | [10] -0.012 | [11] -0.089 | [15] 0.04 | [12] -0.014

BEGAIN, A0A1B0GVM0
inactive: erlotinib 0.086 | [2] -0.053 | [13] -0.015 | [5] 0.01 | [6] -0.026 | IRAK-1-4 Inhibitor I -0.008 | ralimetinib -0.082 | [14] 0.047 | [8] -0.023 | [9] -0.032 | [11] 0.064 | [15] -0.064

BTBD1 (UniProt Q9H0C5)
inactive: erlotinib 0.05 | [1] -0.017 | [2] 0.009 | [3] 0.032 | [16] 0.123 | [4] -0.148 | [5] 0.163 | [6] 0.14 | ibrutinib 0.022 | [8] -0.167 | [9] -0.027

BAK1 (UniProt Q16611)
inactive: erlotinib 0.145 | [1] -0.089 | [2] -0.178 | [3] -0.053 | [13] 0.152 | [4] -0.116 | [5] -0.119 | [6] 0.04 | IRAK-1-4 Inhibitor I 0.278 | [7] 0.037 | ralimetinib 0.073 | [14] -0.107 | [8] -0.016 | [10] -0.128 | [11] -0.122 | [15] 0.115 | [12] 0.094

Three neighbouring records already listed:
BRMS1 (UniProt Q9HCU9)
inactive: erlotinib -0.014 | [1] -0.006 | [2] 0.037 | [3] 0.028 | [13] 0.061 | [4] 0.133 | [5] 0.041 | [6] 0.046 | IRAK-1-4 Inhibitor I 0.099 | [7] -0.026 | ralimetinib 0.05 | [14] -0.127 | [8] 0.017 | [9] -0.007 | [10] -0.012 | [11] -0.089 | [15] 0.04 | [12] -0.014

BEGAIN, A0A1B0GVM0
inactive: erlotinib 0.086 | [2] -0.053 | [13] -0.015 | [5] 0.01 | [6] -0.026 | IRAK-1-4 Inhibitor I -0.008 | ralimetinib -0.082 | [14] 0.047 | [8] -0.023 | [9] -0.032 | [11] 0.064 | [15] -0.064

BTBD1 (UniProt Q9H0C5)
inactive: erlotinib 0.05 | [1] -0.017 | [2] 0.009 | [3] 0.032 | [16] 0.123 | [4] -0.148 | [5] 0.163 | [6] 0.14 | ibrutinib 0.022 | [8] -0.167 | [9] -0.027

The listing continues.

BRD7 isoform 2 (UniProt Q9NPI1)
inactive: erlotinib -0.076 | [2] -0.312 | [16] -0.07 | [13] -0.023 | IRAK-1-4 Inhibitor I 0.006 | ibrutinib 0.043 | [7] 0.008 | ralimetinib 0.017 | [14] -0.092 | [8] 0.088 | [9] 0.26 | [10] -0.119 | [11] -0.017 | [15] 0.039 | [12] 0.021

BAG6 (UniProt F6WML8)
inactive: erlotinib -0.143 | [1] -0.082 | [2] 0.078 | [3] -0.056 | [13] 0.144 | [4] -0.09 | [5] -0.096 | [6] 0.149 | IRAK-1-4 Inhibitor I -0.081 | ralimetinib 0.042 | [14] -0.109 | [8] 0.084 | [15] -0.059
